# Screening data

Source: PubChem BioAssay AID977624 (Broad Institute, 2014).

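Wild-type E. coli carrying GFP, grown in the same well as an h34 humanized-ribosome RFP strain; GFP fluorescence for growth, read after 24 h.
The value is the change in activity at the highest dose tested; more negative means stronger inhibition.
Active requires GFP to fall at least twice as much as RFP with growth loss below a set limit; inconclusive means no clear call; everything else is inactive.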

Only part of the assay is shown, chiefly results filed as inconclusive.

| # | SMILES | condition | activity change | filed as |
|---|---|---|---|---|
| 1 | `Cc1ccc(CCN2C(=O)c3ccccc3C2C(=O)NCc2cccnc2)cc1` (centres undefined) | at 50 µM (top of the series) | 18.63 | inconclusive |
| 2 | `Cc1cccc(N2CCN(Cc3nc(-c4ccc(F)cc4F)oc3C)CC2)n1` | at 50 µM (top of the series) | -11.39 | inactive |
| 3 | `Cc1c(Cc2ccc3c(c2)OCO3)sc(NC(=O)C2CC2)c1C(N)=O` | at 50 µM (top of the series) | -39.01 | inconclusive |
| 4 | `COc1ccc(CNC(=O)c2sc3nc4c(c(C(F)(F)F)c3c2N)CCC4)cc1OC` | at 50 µM (top of the series) | 1.716 | inactive |
| 5 | `COc1ccc(NC(=O)CCS(=O)(=O)c2ccccc2Cl)cc1S(=O)(=O)Nc1ccc(Cl)cc1` | at 50 µM (top of the series) | 3.743 | inconclusive |
| 6 | `CC1Cc2cc(S(=O)(=O)N3CCN(c4cccc(Cl)c4)CC3)ccc2N1C(=O)C1CC1` (centres undefined) | at 50 µM (top of the series) | -5.097 | inactive |
| 7 | `Cc1ccc(-c2c(=O)n(O)c3ccccc3[n+]2[O-])cc1` | at 50 µM (top of the series) | 21.6 | inconclusive |
| 8 | `Cc1ccccc1S(=O)(=O)N1C[C@H]2CON(C)[C@H]2C[C@H]1c1cccc(-c2ccc(C#N)cc2)c1` | at 50 µM (top of the series) | -4.971 | inactive |
| 9 | `Oc1ccc2c3c1OC1c4oc5ccccc5c4C[C@@]4(O)[C@@H](C2)N(CC2CC2)CC[C@]314` (some centres undefined) | at 50 µM (top of the series) | -7.323 | inactive |
| 10 | `O=c1c2ccccc2cnn1Cc1n[nH]c(=S)n1C1CC2CCC1C2` (centres undefined) | at 50 µM (top of the series) | -1.708 | inactive |
| 11 | `O=C(Cc1ccc(Br)cc1)Nc1cccc(-c2cn3c(n2)SCC3)c1` | at 50 µM (top of the series) | 4.883 | inactive |
| 12 | `C[C@H]1CN([C@@H](C)CO)C(=O)CCCn2nncc2CO[C@@H]1CN(C)Cc1ccccc1C(F)(F)F` | at 50 µM (top of the series) | 10.37 | inactive |
| 13 | `O=C(CN(c1ccc(F)cc1)S(=O)(=O)c1ccccc1)Nc1ccccc1C(=O)O` | at 50 µM (top of the series) | 5.228 | inactive |
| 14 | `CCc1nc2ccccc2c(C(=O)OCC(=O)NC(=O)c2cccn2C)c1C` | at 50 µM (top of the series) | 0.282 | inactive |
| 15 | `CCCCc1cc2c(cc1NC(=O)CN1CCCCC1)OCCO2` | at 50 µM (top of the series) | 24.11 | inconclusive |
| 16 | `CCCCC(=O)N(Cc1ccc2c(c1)OCO2)Cc1nc2ccccc2c(=O)[nH]1` | at 50 µM (top of the series) | 33.91 | inconclusive |
| 17 | `CCS(=O)(=O)N1CCN(c2ccc([N+](=O)[O-])c(NCC3CCCO3)c2)CC1` (centres undefined) | at 50 µM (top of the series) | 29.92 | inconclusive |
| 18 | `Fc1ccc(Br)cc1SCCc1ccncc1` | at 50 µM (top of the series) | 13.2 | inconclusive |
| 19 | `Cc1cccc(-n2cnc3cc([N+](=O)[O-])ccc32)c1` | at 50 µM (top of the series) | 14.63 | inactive |
| 20 | `Cc1ccccc1NC(=O)c1ccccc1N(C)S(=O)(=O)c1ccccc1` | at 50 µM (top of the series) | -0.349 | inactive |
| 21 | `COc1cc(NC(=O)CSc2nc(C)cs2)cc(OC)c1` | at 50 µM (top of the series) | -8.792 | inactive |
| 22 | `CN1N=C2c3ccccc3CCC2C1c1ccc(F)cc1` (centres undefined) | at 50 µM (top of the series) | 23.3 | inconclusive |
| 23 | `COc1cc(OC)c(NS(=O)(=O)c2cccc(C(=O)OCC(=O)NCC3CCCO3)c2)cc1Cl` (centres undefined) | at 50 µM (top of the series) | 38.87 | inconclusive |
| 24 | `Cc1ccc(-c2cc[n+](Cc3ccccc3)cc2)cc1` | at 50 µM (top of the series) | 11.5 | inconclusive |
| 25 | `CC(C)n1nnnc1C1c2ccccc2C(=O)N1CCOc1ccccc1` (centres undefined) | at 50 µM (top of the series) | 14.7 | inactive |
| 26 | `O=C(Nc1cccc(S(=O)(=O)c2cccc(NC(=O)C3CC3)c2)c1)C1CC1` | at 50 µM (top of the series) | 42.27 | inconclusive |
| 27 | `O=C(Nc1cccc2ccccc12)c1ccc([N+](=O)[O-])o1` | at 50 µM (top of the series) | 8.938 | inactive |
| 28 | `CCOc1ccc2oc(C(=O)NC3CCN(Cc4ccccc4)CC3)c(C)c2c1` | at 50 µM (top of the series) | 27.57 | inconclusive |
| 29 | `CCOC(=O)CCSc1n[nH]c(=S)s1` | at 50 µM (top of the series) | 13.03 | inconclusive |
| 30 | `COc1ccc(-c2csc(NC(=O)c3ccoc3C)n2)cc1` | at 50 µM (top of the series) | -28.3 | inconclusive |
| 31 | `Cc1cccc(C(=O)NCC(=O)N2CC=C(c3ccccc3)CC2)c1` | at 50 µM (top of the series) | -34.52 | inconclusive |
| 32 | `COc1cccc(NC(=O)C(C)SCc2ccccc2)c1` (centres undefined) | at 50 µM (top of the series) | 23.84 | inconclusive |
| 33 | `C[C@H](CO)N1C[C@H](C)[C@H](CN(C)C)OCCCC[C@H](C)Oc2ccc(NC(=O)Nc3cccc4ccccc34)cc2C1=O` | at 50 µM (top of the series) | 22.23 | inconclusive |
| 34 | `Cc1nn(C(C)(C)C)c(OC(=O)CC(C)C)c1S(=O)(=O)c1ccccc1` | at 50 µM (top of the series) | -14.23 | inconclusive |
| 35 | `O=C(Nc1ccc(S(=O)(=O)N2CCOCC2)cc1)c1ccc([N+](=O)[O-])o1` | at 50 µM (top of the series) | -8.849 | inconclusive |
| 36 | `CC(C(=O)Nc1nc2ccccc2s1)n1cc([N+](=O)[O-])cn1` (centres undefined) | at 50 µM (top of the series) | 3.742 | inconclusive |
| 37 | `Cc1nc(-c2ccc([N+](=O)[O-])cc2)c(-c2ccccc2)o1` | at 50 µM (top of the series) | -6.969 | inactive |
| 38 | `O=C(Nc1cccc2c1CCCC2)c1ccco1` | at 50 µM (top of the series) | -1.437 | inconclusive |
| 39 | `CC(C)(C)c1ccc(N2C(=O)CSC2c2cccnc2)cc1` (centres undefined) | at 50 µM (top of the series) | 20.91 | inconclusive |
| 40 | `O=C1CC(=O)N(Cc2ccccc2)C(=O)N1CCCCCCN1C(=O)CC(=O)N(Cc2ccccc2)C1=O` | at 50 µM (top of the series) | 34.66 | inconclusive |
| 41 | `S=c1[nH]c2cc(Cl)ccc2s1` | at 50 µM (top of the series) | -36.97 | inconclusive |
| 42 | `Cc1cccc(OCc2nnc(SCC(=O)Nc3ncc(C)s3)o2)c1` | at 50 µM (top of the series) | 15.14 | inconclusive |
| 43 | `COc1cc2c(cc1NC(=O)C(C)Sc1cccc[n+]1[O-])oc1ccccc12` (centres undefined) | at 50 µM (top of the series) | 1.937 | inconclusive |
| 44 | `O=C(CN1CCC(n2nnc3cc(F)ccc32)CC1)N1CCc2ccccc2C1` | at 50 µM (top of the series) | 17.81 | inconclusive |
| 45 | `CCN(CC(=O)Nc1cccc(S(=O)(=O)N2CCCC2)c1)CC(=O)Nc1ccccc1OC` | at 50 µM (top of the series) | 4.302 | inactive |

3 of the entries, repeated:

- Cc1ccccc1NC(=O)c1ccccc1N(C)S(=O)(=O)c1ccccc1 [at 50 µM (top of the series)] | activity change -0.349 (inactive)
- CCCCC(=O)N(Cc1ccc2c(c1)OCO2)Cc1nc2ccccc2c(=O)[nH]1 [at 50 µM (top of the series)] | activity change 33.91 (inconclusive)
- Cc1cccc(OCc2nnc(SCC(=O)Nc3ncc(C)s3)o2)c1 [at 50 µM (top of the series)] | activity change 15.14 (inconclusive)